Values of other authors as cited in patent US20050208139A1 (Ascend Therapeutics, Inc., priority 2004, published 2005).
At least one compound was matched to its structure with a doubt left.

Details: cited from earlier work

In the case of `CC/C(=C(\c1ccc(O)cc1)c1ccc(OCCN(C)C)cc1)c1ccccc1` (single isomer, unassigned) [Z isomer], the “biological activity compared with the E isomer” value is given as “more active biologically than the E isomer”.
